Results from PMC11597211.
These are yes or no findings as the source states them, for the method shown. In cells and extracts the contact can be indirect.

The chains behind the UniProt entries cited, without tags or fusion partners.
UniProt P08047: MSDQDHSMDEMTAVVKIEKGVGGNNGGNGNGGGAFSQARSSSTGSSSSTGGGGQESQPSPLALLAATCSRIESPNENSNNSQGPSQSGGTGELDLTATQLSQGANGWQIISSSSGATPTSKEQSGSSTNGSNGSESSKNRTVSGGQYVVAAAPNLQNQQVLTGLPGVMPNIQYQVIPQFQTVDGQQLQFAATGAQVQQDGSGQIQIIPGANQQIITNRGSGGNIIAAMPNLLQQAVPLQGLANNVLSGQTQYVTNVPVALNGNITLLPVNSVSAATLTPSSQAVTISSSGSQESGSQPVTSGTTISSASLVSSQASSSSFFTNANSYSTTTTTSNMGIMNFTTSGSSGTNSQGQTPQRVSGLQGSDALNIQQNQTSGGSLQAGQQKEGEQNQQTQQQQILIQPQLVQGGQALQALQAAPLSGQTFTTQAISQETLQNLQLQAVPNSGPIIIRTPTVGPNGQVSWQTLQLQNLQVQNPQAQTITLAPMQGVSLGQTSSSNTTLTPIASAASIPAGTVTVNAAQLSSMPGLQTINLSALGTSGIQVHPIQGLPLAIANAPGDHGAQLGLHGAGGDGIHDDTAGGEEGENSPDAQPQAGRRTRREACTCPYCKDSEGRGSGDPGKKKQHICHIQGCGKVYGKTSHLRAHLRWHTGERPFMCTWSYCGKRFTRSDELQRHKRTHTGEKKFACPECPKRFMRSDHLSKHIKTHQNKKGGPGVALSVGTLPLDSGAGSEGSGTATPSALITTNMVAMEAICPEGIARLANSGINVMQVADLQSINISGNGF

Target: Specificity protein 1 (Sp1) (UniProt P08047)
Assay: co-IP; Co-IP of TKFC and Sp1, told only in the discussion; no methods, figure, bait or sample given

binding: no binding
B1: Triokinase/FMN cyclase (TKFC) (protein, UniProt Q3LXA3 1-575)
chain: MTSKKLVNSVAGCADDALAGLVACNPNLQLLQGHRVALRSDLDSLKGRVALLSGGGSGHEPAHAGFIGKGMLTGVIAGAVFTSPAVGSILAAIRAVAQAGTVGTLLIVKNYTGDRLNFGLAREQARAEGIPVEMVVIGDDSAFTVLKKAGRRGLCGTVLIHKVAGALAEAGVGLEEIAKQVNVVAKAMGTLGVSLSSCSVPGSKPTFELSADEVELGLGIHGEAGVRRIKMATADEIVKLMLDHMTNTTNASHVPVQPGSSVVMMVNNLGGLSFLELGIIADATVRSLEGRGVKIARALVGTFMSALEMPGISLTLLLVDEPLLKLIDAETTAAAWPNVAAVSITGRKRSRVAPAEPQEAPDSTAAGGSASKRMALVLERVCSTLLGLEEHLNALDRAAGDGDCGTTHSRAARAIQEWLKEGPPPASPAQLLSKLSVLLLEKMGGSSGALYGLFLTAAAQPLKAKTSLPAWSAAMDAGLEAMQKYGKAAPGDRTMLDSLWAAGQELQAWKSPGADLLQVLTKAVKSAEAAAEATKNMEAGAGRASYISSARLEQPDPGAVAAAAILRAILEVLQS
